Patent US20080166323A1, “Activators of Hexosamine Biosynthesis as Inhibitors of Injury Induced by Ischemia or Hermorrhagic Shock” (UAB RESEARCH FOUNDATION, priority 2004, published 2008)

Assays:
[1] = test system: rat model of trauma-hemorrhage and resuscitation; test: soft tissue trauma-hemorrhage (T-H) and resuscitation, Example 1 (glucosamine before hemorrhage and during resuscitation); format: in vivo; details: G-T-H (n = 3), mean ± SEM
Experimental: (§1) The following experiments were conducted using a model of soft tissue trauma-hemorrhage (T-H) as described in Ba, et al., Crit. Care Med (2000) 28(8):2837-2842; Chaudry, et al., Can J Physiol Pharmacol (1975) 53(5):859-865; Ma, et al., Am J Physiol Gastrointest Liver Physiol (2003) 284(1):G107-G115; and Harkema and Chaudry, Crit. Care Med (1992) 20(2):263-275. Male rats were fasted for 16 h and divided into three groups: (1) sham (trauma only); (2) T-H (trauma with subsequent hemorrhage and resuscitation); and (3) G-T-H (trauma with subsequent hemorrhage and resuscitation in the presence of glucosamine). All groups underwent a 5 cm ventral midline laparotomy to induce soft-tissue trauma and were cannulated in both femoral arteries and the right femoral vein. The T-H and G-T-H groups received an infusion of 3 mls over 30 minutes of Ringer's lactate (RL) containing, in the G-T-H group only, 10 mM glucosamine. These two groups were then bled to a mean arterial pressure of 40 mm Hg within 10 minutes and maintained at that pressure for 80 minutes. The T-H group was then infused with 1 ml RL over 10 minutes, while in the G-T-H group the infusate contained an iso-osmotic solution of 75 mM glucosamine (pH 7.4) in 50% RL. The two groups were then resuscitated with four times the maximum hemorrhage volume over a period of 60 minutes with RL (T-H) or RL containing 10 mM glucosamine (G-T-H). Sham-operated animals underwent the same surgical procedure but were neither bled nor resuscitated. Two hours post-resuscitation, a catheter was inserted into the left ventricle via the right carotid artery. Organ blood flows were determined using radioactive microspheres. Cardiac function and blood parameters were also assessed. The data for these experiments are shown in Tables 1 and 2 (values are mean ±standard error of the mean).

[2] = test system: rat model of trauma-hemorrhage and resuscitation; test: trauma/hemorrhage mimicking the field, Example 2 (glucosamine only during resuscitation); format: in vivo; details: G-T-H (n = 8), 2 h after T-H, mean ± SEM
Experimental: as §1, with “The two groups were then resuscitated with four times the maximum hemorrhage volume over a period of 60 minutes with RL (T-H) or RL containing 10 mM glucosamine (G-T-H). Sham-operated animals underwent the same surgical procedure but were neither bled nor resuscitated. Two hours post-resuscitation, a catheter was inserted into the left ventricle via the right carotid artery.” left out, “The data for these experiments are shown in Tables 1 and 2 (values are mean ±standard error of the mean).” left out

[3] = 2 h after T-H, glucosamine before hemorrhage and in resuscitation

`N[C@H]1C(O)O[C@H](CO)[C@@H](O)[C@@H]1O` (some centres unmarked) [glucosamine] was tested, and the Hematocrit [1, 3] was 17.6 ± 0.2%, the Hemoglobin [1, 3] was 5.6 ± 0.1 g and the “Maximum Hemorrhage Volume” value ([1]; glucosamine infused before hemorrhage) was 12.2 ± 0.7 mls. It also gave a Hematocrit [2] of 16.74 ± 0.76% and a Hemoglobin [2] of 5.31 ± 0.26 g.
